Some of the results follow. These are further read-outs of the screen, such as a control signal, another cell line or another target. No call is given for them. Most of these compounds were active or inconclusive in the main read-out, so they are no random draw. Words in brackets tell the shape of the fitted curve; partial curves, single points and poor fits give uncertain potencies.
Assay: qHTS Assay to Find Inhibitors of Chronic Active B-Cell Receptor Signaling
Conditions: ABC-DLBCL IkBa-CBG/CBR reporter, luminescence ratio (green luciferase fused to IkBa over red control in TMD8 lymphoma cells), 4 h
How it was run: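 Doxycycline induced both beetle luciferases in TMD8 lymphoma cells; IKK-driven degradation limits the IkappaBalpha-fused green signal, while red luminescence normalises for cell number and nonspecific effects. Compounds tested up to 46 uM, 4 hrs.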

[1] = measured here: CBR red luminescence, cell number
[2] = measured here: IkBa-CBG green luminescence

In the case of `COc1ccc(C(=O)[C@H]2[C@H]3C(=O)N(c4ccccc4)C(=O)[C@H]3C3C=CC=NN32)cc1` (stereo partly drawn), the AC50 [1] is reported as 11.2 µM [falling, partial curve, poor fit].

For `CCOC(=O)c1c(N)sc(C(=O)Nc2ccccc2F)c1C`, the AC50 [1] was 35.5 µM [falling, single point].

With `COc1ccc(CCN2C(=O)CSC2=S)cc1OC` the AC50 [2] was 35.5 µM [falling, single point].

With `O=C(O)/C=C/C(=O)NCc1ccccc1` the AC50 [1] was 3.66 µM [rising, full curve].

With `COc1ccc(-c2cc3ccccc3nc2N)cc1OC` the AC50 [1] was 22.4 µM [falling, single point].

With `O=C(N/N=C1\C2CN3CCN(C2)CC1(c1ccccc1)C3)c1ccc(F)cc1` the AC50 [1] was 25.9 µM [falling, partial curve].

In the case of `O=C(C[n+]1ccc(C(=O)NCCCO)cc1)c1cccc(Br)c1`, the AC50 [1] is reported as 3.16 µM [rising, full curve, poor fit].

With `CSc1nc2c(c(=O)[nH]1)C(c1ccccc1Cl)CC(=O)N2` (stereo not drawn) the AC50 [1] was 3.55 µM [rising, partial curve, poor fit].

In the case of `OCC1(CCCc2ccccc2)CCN(Cc2cnc(N3CCOCC3)s2)CC1`, the AC50 [1] is reported as 5.62 µM [rising, single point].

For `CC(=O)Nc1ccc(S(=O)(=O)N2CCCN(S(=O)(=O)c3ccc(NC(C)=O)cc3)CC2)cc1`, the AC50 [1] was 2.06 µM [rising, full curve, poor fit].

In the case of `CCOCCCNC(=O)C(NC(=O)c1ccc(NC(C)=O)cc1)c1ccc(OC)cc1` (stereo not drawn), the AC50 [1] is reported as 29.1 µM [rising, single point].

In the case of `Cc1ccc(CS(=O)(=O)c2cn(CC(=O)N3CCOCC3)c3ccccc23)cc1`, the AC50 [1] is reported as 3.98 µM [falling, single point].

With `COc1cc(C(=O)Nc2sc3c(c2C(=O)O)CCC(C)C3)cc(OC)c1OC` (stereo not drawn) the AC50 [1] was 5.62 µM [falling, partial curve].

In the case of `O=C(C1=C[C@@H](C2CCCCC2)C[C@@H](OCCCCO)O1)N1CCN(Cc2ccccc2)CC1`, the AC50 [1] is reported as 35.5 µM [falling, single point].

In the case of `Cn1c(=O)c2c(nc(CN3CCC(C(N)=O)CC3)n2Cc2ccccc2Cl)n(C)c1=O`, the AC50 [1] is reported as 15.8 µM [rising, partial curve].

With `O=C1CC(N2CCN(C3CC(=O)N(CCc4ccccc4)C3=O)CC2)C(=O)N1CCc1ccccc1` (stereo not drawn) the AC50 [1] was 25.9 µM [rising, single point].

For `Cc1ccc(NC(=O)c2ccc([N+](=O)[O-])o2)cc1C`, the AC50 [1] was 35.5 µM [falling, single point].

With `O=C(C1CCCN(Cc2ccccc2[N+](=O)[O-])C1)N1CCCC1` (stereo not drawn) the AC50 [1] was 15.8 µM [rising, single point].

With `CCN=C1S/C(=C\c2sccc2C)C(=O)N1CC` the AC50 [1] was 1.46 µM [rising, partial curve] and the AC50 [2] was 16.4 µM [falling, partial curve, poor fit].

In the case of `CCc1c(C#N)c(SCCC(=O)Nc2cccc(OC)c2)nc2c1C(=O)CC(C)(C)C2`, the AC50 [1] is reported as 14.6 µM [falling, single point].

For `COCc1ccc(-c2c(-c3cccc(OC)c3)sc3ccc(OC)cc23)cc1`, the AC50 [1] was 7.31 µM [rising, partial curve, poor fit].

For `CC(=O)Cc1nsc(NC(=O)c2cccs2)n1`, the AC50 [1] was 14.1 µM [falling, single point].

For `CCCNC(=O)c1nn2cc(Br)cnc2c1Br`, the AC50 [1] was 10 µM [rising, partial curve].

With `O=C(NNC(=O)c1cc(Cl)ccc1O)c1cccs1` the AC50 [1] was 0.447 µM [falling, full curve].

With `CCCn1c(N)c(N(CCOC)C(=O)CSc2ccccc2)c(=O)[nH]c1=O` the AC50 [2] was 32.6 µM [falling, partial curve, poor fit].

In the case of `COc1ccccc1N1CCN(C(=O)C2CCCN(S(=O)(=O)c3ccc4c(c3)oc(=O)n4C)C2)CC1` (stereo not drawn), the AC50 [1] is reported as 0.282 µM [falling, full curve, poor fit].

For `Cc1ccc2c(c1)N(CC(=O)OC(CC(C)C)C(=O)NC1CCCC1)C(=O)CO2` (stereo not drawn), the AC50 [1] was 12.6 µM [falling, partial curve, poor fit].

In the case of `Cc1cccc(N(CC(=O)NCc2ccc(F)cc2)C(=O)c2csnn2)c1C`, the AC50 [1] is reported as 4.47 µM [falling, partial curve, poor fit].

For `N#C/C(=N\Nc1ccc(Cl)c(Cl)c1)C(=O)C1CC1`, the AC50 [1] was 10 µM [falling, partial curve].

For `Cc1cc(C(=O)NC2CCCCC2)c(C)n1-c1ccc(F)cc1`, the AC50 [1] was 23.1 µM [falling, single point].

In the case of `N/C(=N\OC(=O)C12CC3CC(CC(C3)C1)C2)c1ccncc1`, the AC50 [1] is reported as 5.62 µM [rising, single point].

With `CCOC(=O)c1c(C)oc2ccc(OCc3cc(C(=O)OC)oc3C)cc12` the AC50 [1] was 29.1 µM [falling, single point].

— PubChem BioAssay AID493014 (National Center for Advancing Translational Sciences (NCATS), 2011)
